Results on two substances are retold here after article PMC5655499, “Peptide array-based screening reveals a large number of proteins interacting with the ankyrin-repeat domain of the zDHHC17 S-acyltransferase” (The Journal of Biological Chemistry, 2017).

Sequences of proteins named here, by UniProt entry; tags and fusion partners are left off. Residues count along the entry.
UniProt Q8IUH5, residues 51-304: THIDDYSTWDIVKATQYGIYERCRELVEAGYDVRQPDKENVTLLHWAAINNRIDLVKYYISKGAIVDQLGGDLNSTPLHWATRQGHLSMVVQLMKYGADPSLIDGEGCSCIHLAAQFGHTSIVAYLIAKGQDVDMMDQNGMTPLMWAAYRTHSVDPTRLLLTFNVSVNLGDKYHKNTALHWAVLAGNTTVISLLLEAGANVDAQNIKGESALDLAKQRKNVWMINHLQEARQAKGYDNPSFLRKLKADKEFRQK

Results are given in words; binding and its absence hold for the method and conditions named. A result given as binding can be weak or reduced; the word gives no strength. For some assays here: In cells and extracts the contact can be indirect.

Experiment [1] deals with T1, murine zDHHC13-Cub-PLV bait (mouse) (UniProt Q9CWU2).
T1 sequence: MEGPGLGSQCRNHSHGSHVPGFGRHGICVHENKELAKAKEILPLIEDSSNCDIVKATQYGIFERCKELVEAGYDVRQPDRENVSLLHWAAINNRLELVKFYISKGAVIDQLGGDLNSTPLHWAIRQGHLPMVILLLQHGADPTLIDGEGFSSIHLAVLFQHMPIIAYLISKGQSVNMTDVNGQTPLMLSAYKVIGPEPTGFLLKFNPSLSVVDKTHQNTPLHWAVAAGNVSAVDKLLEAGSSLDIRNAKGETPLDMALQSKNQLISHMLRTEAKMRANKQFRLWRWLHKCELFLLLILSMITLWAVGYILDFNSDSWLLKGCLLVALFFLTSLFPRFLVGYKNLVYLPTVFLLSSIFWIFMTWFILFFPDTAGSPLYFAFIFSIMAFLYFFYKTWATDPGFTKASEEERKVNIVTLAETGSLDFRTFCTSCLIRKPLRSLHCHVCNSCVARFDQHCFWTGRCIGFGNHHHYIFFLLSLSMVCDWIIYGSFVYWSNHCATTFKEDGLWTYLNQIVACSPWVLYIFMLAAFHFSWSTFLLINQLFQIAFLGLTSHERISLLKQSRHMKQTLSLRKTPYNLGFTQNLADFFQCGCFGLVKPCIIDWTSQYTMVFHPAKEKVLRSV
As to the kind of experiment: two-hybrid; mating-based split-ubiquitin system (SUS) in yeast; zDHHC-Cub-PLV bait, NubG-2HA-tagged prey; growth on SD media lacking adenine and histidine.

Experiment [2] has as its target ARzD17-His (51–304 amino acids of human zDHHC17) (human) (UniProt Q8IUH5). Briefly: pull-down; HEK293T lysates with EGFP-tagged proteins incubated with 50 μg ARzD17-His (51–304) and Ni-NTA agarose, 2 h at 4 °C; washes 20 mM Tris-HCl pH 8, 300 mM NaCl, 1% Triton, 40 mM imidazole; blot with GFP antibody; only the target purified.

As for “NubG-2HA-SPRED2 C-terminal truncation lacking the SPR domain (mouse) (domain or fragment)”, in experiment [1], the binding result is recorded as “binds”.
“EGFP-tagged EVL isoform 1 (from UniProt Q9UI08-2)”: the binding result in experiment [2] is reported as “binds”.
